Values of other authors, collected in US20230263816A1, “PHARMACEUTICAL COMPOSITIONS FOR DELIVERY OF REMDESIVIR BY INHALATION” (priority 2020, published 2023).
Where two headings read alike, the source gives them in different places. At least one structure is not confirmed: it was looked up by name or label, or the drawing left a doubt.

System: SAR-CoV-2
Conditions: cited from earlier work

In the case of `CCC(CC)COC(=O)[C@H](C)N[P@](=O)(OC[C@H]1O[C@@](C#N)(c2ccc3c(N)ncnn23)[C@H](O)[C@@H]1O)Oc1ccccc1` [remdesivir], the EC50 (human airway epithelial (HAE), Agostini et al., 2018) is listed as 0.04218 µg/mL and the EC50 (read-out: EC50) is listed as 70 nM.
